This note sets out measurements from publication doi:10.1101/2025.04.11.648320 (bioRxiv, 2025).

Chains of the proteins cited; added tags and fusions are not shown. Lines headed by an entry give the natural chain unless they say otherwise; changes in a name come on top.
UniProt Q9SRH6: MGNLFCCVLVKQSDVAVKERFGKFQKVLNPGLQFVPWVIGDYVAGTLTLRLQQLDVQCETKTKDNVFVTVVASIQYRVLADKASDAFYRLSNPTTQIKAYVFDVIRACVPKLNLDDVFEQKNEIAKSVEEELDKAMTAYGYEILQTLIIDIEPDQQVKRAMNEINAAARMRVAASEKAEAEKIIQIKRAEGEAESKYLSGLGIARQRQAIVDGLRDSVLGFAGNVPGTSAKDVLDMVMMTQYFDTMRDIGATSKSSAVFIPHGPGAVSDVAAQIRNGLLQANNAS

The target in assay [1] is T1, BAK1-GFP expressed in Arabidopsis protoplasts (Arabidopsis thaliana) (UniProt Q94F62).
T1 sequence: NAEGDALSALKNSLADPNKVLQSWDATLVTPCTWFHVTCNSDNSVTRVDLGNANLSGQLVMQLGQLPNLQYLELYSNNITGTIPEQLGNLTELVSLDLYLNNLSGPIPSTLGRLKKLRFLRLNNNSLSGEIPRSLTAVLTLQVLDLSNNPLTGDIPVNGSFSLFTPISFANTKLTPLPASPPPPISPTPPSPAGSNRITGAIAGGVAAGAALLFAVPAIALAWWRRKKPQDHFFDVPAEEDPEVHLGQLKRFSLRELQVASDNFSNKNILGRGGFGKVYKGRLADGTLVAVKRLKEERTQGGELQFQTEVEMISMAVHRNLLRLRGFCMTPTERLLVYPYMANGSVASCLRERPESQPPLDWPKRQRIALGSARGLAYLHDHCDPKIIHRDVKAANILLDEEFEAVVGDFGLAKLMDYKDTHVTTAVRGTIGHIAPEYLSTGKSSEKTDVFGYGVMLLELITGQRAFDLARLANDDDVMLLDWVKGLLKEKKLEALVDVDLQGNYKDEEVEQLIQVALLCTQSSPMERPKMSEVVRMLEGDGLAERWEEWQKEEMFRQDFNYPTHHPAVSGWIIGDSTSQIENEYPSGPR
The assay is described as follows: co-IP.

Assay [2] concerns the target HIR2, mating-based split-ubiquitin (mbSUS) fusion (Arabidopsis thaliana) (UniProt Q9SRH6). The assay is described as follows: two-hybrid.

Results are given in words; binding and its absence hold for the method and conditions named. A result given as binding can be weak or reduced; the word gives no strength. Sequences can lack the tags named with a protein. For part of these data: Binding seen in cells or lysates may run through a third protein.

As to “HIR2-HA expressed in Arabidopsis protoplasts (from UniProt Q9SRH6)”, the binding result in assay [1] was “binds”.

B1: BAK1, mating-based split-ubiquitin (mbSUS) fusion (receptor, UniProt Q94F62 26-615)
chain: T1 sequence
Consider B1, for which, in assay [2], the binding entry was “binds”.

B2: CERK1, mating-based split-ubiquitin (mbSUS) fusion (receptor, UniProt A8R7E6 24-617)
chain: KCRTSCPLALASYYLENGTTLSVINQNLNSSIAPYDQINFDPILRYNSNIKDKDRIQMGSRVLVPFPCECQPGDFLGHNFSYSVRQEDTYERVAISNYANLTTMESLQARNPFPATNIPLSATLNVLVNCSCGDESVSKDFGLFVTYPLRPEDSLSSIARSSGVSADILQRYNPGVNFNSGNGIVYVPGRDPNGAFPPFKSSKQDGVGAGVIAGIVIGVIVALLLILFIVYYAYRKNKSKGDSFSSSIPLSTKADHASSTSLQSGGLGGAGVSPGIAAISVDKSVEFSLEELAKATDNFNLSFKIGQGGFGAVYYAELRGEKAAIKKMDMEASKQFLAELKVLTRVHHVNLVRLIGYCVEGSLFLVYEYVENGNLGQHLHGSGREPLPWTKRVQIALDSARGLEYIHEHTVPVYVHRDIKSANILIDQKFRAKVADFGLTKLTEVGGSATRGAMGTFGYMAPETVYGEVSAKVDVYAFGVVLYELISAKGAVVKMTEAVGEFRGLVGVFEESFKETDKEEALRKIIDPRLGDSYPFDSVYKMAELGKACTQENAQLRPSMRYIVVALSTLFSSTGNWDVGNFQNEDLVSLMSGR
Turning to B2, the binding result in assay [2] is “binds”.
